The source of these data is patent publication US5425935A, “Imaging of infections” (British Technology Group Limited, priority 1991, dated 1995).

The conditions of data set [1]: known; cited from earlier work.
For data set [2] the following is noted: 50 to 70MBq injected.

Take `O=C(O)c1cn(C2CC2)c2cc(N3CCNCC3)c(F)cc2c1=O` [parent ciprofloxacin]: the renal excretion result in data set [1] is given as “actively excreted from the renal tubules”.

Take `O=C(O)c1cn(C2CC2)c2cc(N3CCNCC3)c(F)cc2c1=O` [Tc-99m-ciprofloxacin, metal not drawn]: in data set [2], the “uptake in the infected limb (images)” value is given as “uptake in the infected limb”. Besides, in data set [2] (rabbit), the biodistribution entry is “generally diffuse up-take throughout the body with main uptake in the kidneys and the liver”.
